PubChem BioAssay AID1671195 | Yale University | 2021
The deposit covers about 22,000 reagents; below is a random part of them. About 1,510 of all reagents (6.9%) were called active. 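Active includes knockdowns raising or lowering LDL uptake; positive z-scores mean more uptake, negative mean less.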 Unmarked entries are inactive.

Purpose: 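Knockdowns that increase or decrease uptake of fluorescent LDL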 (primary screen)
System: human Huh7 hepatoma cells
Reagents: siRNA pool against human genes, 18 nM
Timing: about 2 to 2.5 days of knockdown, then 8 h LDL uptake
Challenge: DiI-labelled LDL at 30 µg/ml for 8 h, in lipoprotein-deficient serum medium
Detection: 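Fluorescent LDL signal imaged in cells, scaled to the plate median, robust z-score for each replicate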
Direction: robust z-score: higher = more LDL uptake after knockdown
Active means: 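a gene counts as active if at least two replicate z-scores exceed ±2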

no.	gene knocked down	PubChem SID	robust z-score, replicate 1	robust z-score, replicate 2	robust z-score, replicate 3
1	LOC339693 (retired record)	SID442896491	-0.294	-0.438	-0.102
2	EEF1A2	SID442899034	-0.6	-0.6	-0.508
3	DNAJC15	SID442888201	1.27	0.184	0.844
4	ATG10	SID442892360	0.515	-0.222	0.237
5	PCDHGB2	SID442904616	-1.91	-1.67	-1.68
6	ZNF25	SID442883610	2.48 (active)	2.84	2.4
7	LOC440095 (retired record)	SID442887579	1.16	0.931	0.552
8	LAT	SID442893647	0.0454	0.297	-0.264
9	XPC	SID442902736	-1.41	-1.04	-0.963
10	VTI1BP2	SID442889916	0.365	0.48	0.624
11	METTL2A	SID442898819	-0.405	-0.664	-0.557
12	TTC33	SID442886366	0.448	1.9	1.19
13	TNFRSF10B	SID442886020	1.21	1.29	1.36
14	SLC9A3	SID442894359	-0.0378	-0.373	0.245
15	HMGN2	SID442884839	1.69	1.78	2.05
16	MRPS23	SID442898364	-1.67	0.339	-0.137
17	ZSWIM3	SID442890267	-0.0488	0.672	0.701
18	LOC400741 (retired record)	SID442887239	1.14	0.751	0.978
19	SLFNL1	SID442896360	-0.329	-0.496	0.0322
20	SECISBP2L	SID442891964	1.53	-0.298	-0.561
21	LOC400647 (retired record)	SID442887446	0.914	1.11	0.712
22	SPATA3	SID442887164	1.38	0.407	1.13
23	MT1F	SID442884516	-2.09 (active)	-2.81	-1.97
24	SMIM17	SID442886668	1.63	0.78	0.869
25	KLHL12	SID442889178	1.09	0.388	0.319
26	EPOR	SID442900950	-1.01	-0.349	-1.14
27	TSEN2	SID442896905	-0.448	-0.115	-0.412
28	TSC2	SID442903247	-1.12	-1.37	-1.27
29	LOC389330 (retired record)	SID442888308	0.355	0.746	1.14
30	KIF20A	SID442898357	-0.235	-0.343	-0.89
31	UBE2A	SID442889774	0.978	-0.764	1.32
32	TSEN15	SID442897076	0.306	-0.1	-1.24
33	GAL	SID442903014	-0.955	-0.707	-1.93
34	PROM1	SID442897715	-0.205	0.44	-1.48
35	RAB1B	SID442902249	-0.19	-1.56	-1.36
36	AKR1C2	SID442904670	-1.92	-1.54	-1.93
37	LOC401261	SID442893652	-0.0141	0.0664	0.0226
38	LOC441175 (retired record)	SID442887121	1.07	0.985	0.887
39	LOC440895	SID442884350	-1.88 (active)	-2.05	-2.03
40	LOC440895	SID442902439	-1.69	-0.722	-0.814
41	PGBD3	SID442895653	-0.352	-0.179	-0.0429
42	RBM17	SID442883774	2.56 (active)	2.01	2.43
43	CHST12	SID442887515	1.21	0.758	0.729
44	SMC2	SID442899390	-0.304	-0.975	-0.562
45	PYHIN1	SID442883685	2.87 (active)	1.83	2.68
46	LINC00523	SID442891536	0.258	0.214	0.352
47	SPDYC	SID442900466	-0.585	-0.755	-0.948
48	GPRC5A	SID442889171	0.745	0.614	0.445
49	WASF1	SID442892514	-0.592	1.15	-0.0881
50	AKR7A2	SID442893224	-0.0126	-0.151	0.389
51	SERTAD4	SID442903245	-1.68	-0.443	-1.64
52	DARS1	SID442900015	-0.78	-0.56	-0.76
53	LOC389267 (retired record)	SID442899308	-0.389	-1.03	-0.391
54	IPO8	SID442888685	0.74	0.811	0.484
55	STYX	SID442890871	-0.487	1.02	0.552
56	HSP90B1	SID442900882	-1.11	-0.944	-0.41
57	LOC441458 (retired record)	SID442903308	-1.16	-1.51	-1.13
58	LOC441803 (retired record)	SID442893521	-0.681	-0.0449	0.849
59	TDO2	SID442901413	-1.02	-0.734	-0.934
60	NR1I2	SID442903103	-1.36	-0.824	-1.47
61	TMPRSS11BNL	SID442888518	0.608	0.811	0.698
62	OSCAR	SID442886987	1.11	1.19	0.734
63	ZCCHC4	SID442893046	0.522	-0.643	0.401
64	BACE2	SID442884317	-2.18 (active)	-1.7	-1.91
65	LOC388923 (retired record)	SID442890200	0.152	0.724	0.475
66	CIMIP1	SID442897804	-0.163	-0.694	-0.426
67	P2RY14	SID442900854	-1.11	-0.488	-0.851
68	FAR2	SID442901047	-1.01	0.0272	-1.54
